The values below come from paper PMC5996148.

Values joined by “and” are separate entries in the source; they are usually repeats but may differ in a detail not shown here. Equal values may be shown once. The list shows a part of the results.

Test systems include PSME1 (human); PTCHD1 (human); PTGES2 (human); PTK2B (human); PTMS (human); PTPN1 (human); PTPN2 (human); PVALB (human); PVRL3 (human); PXN (human); PYCR1 (human); Paladin (human).
What all share (experiment): protein microarray (ProtoArray v5.0), streptavidin-Alexa Fluor 647
What all share (conditions): 3'-biotin; 20 mM Tris (pH 7.5), 5 mM MgCl2, 100 mM KCl, 0.1% Tween-20, A/T-rich and random oligonucleotide blockers; temperature not stated; high values mean tight binding

For assay [1], the system named is Pantothenate kinase 1 (human).
Assay [2] relates to Peptidyl-prolyl cis-trans isomerase-like 3 (human).
Assay [3] concerns Peptidyl-tRNA hydrolase 2, mitochondrial (human).
The test system of assay [4] is Phosphatase and actin regulator 4 (human).
Assay [5] relates to Phosphatidylinositol-3,4,5-trisphosphate 3-phosphatase and dual-specificity protein phosphatase PTEN (human).
Assay [6] deals with Phosphoacetylglucosamine mutase (human).
Assay [7] relates to Phosphoglucomutase-2 (human).
Assay [8] concerns Phospholipase DDHD2 (human).

With “GGGGACAGGGGTATGGGGAGGGG [G4-3 biotinylated (CtG)]”, the binding signal in the assay with PSME1 (human) is -0.339 z-score; with PTCHD1 (human), -0.312 z-score; in the assay on PTGES2 (human), -0.345 z-score; in the assay on PTK2B (human) it was -0.331 z-score; with PTMS (human), -0.315 z-score; in the assay with PTPN1 (human) it was -0.328 z-score. For the same sequence, the binding signal in the assay on PTPN2 (human) is -0.318 z-score; in the assay with PVALB (human), -0.326 z-score; with PVRL3 (human), -0.307 z-score; in the assay with PXN (human), -0.33 z-score; in the assay on PYCR1 (human), -0.339 z-score; with Paladin (human), -0.317 z-score. For the same sequence, the binding signal in assay [1] was -0.322 z-score and -0.334 z-score; in [2] it was -0.329 z-score; in [3] it was 3.95 z-score; in assay [4], -0.325 z-score; in [5] it was -0.336 z-score; in assay [6], -0.334 z-score. The binding signal in [7] is -0.335 z-score; in assay [8] it was -0.327 z-score.
